PubChem BioAssay AID1259405 – NCATS | 2018

Aim: 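Knock-downs that lift recombinant protein yield in hamster ovary cells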 (primary screen)
Cell system: Chinese hamster CHO-K1 ovary cells with stable secreted eGFP expression
Reagents: single siRNA against mouse genes, 0.8 pmol siRNA per well (2 µl of 400 nM stock)
Timing: 3 days
Read-out: 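Per-well intracellular GFP measured by laser scanning cytometry, plus viability from ATP luminescence, each relative to plate median of non-targeting control wells, in %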
Direction: GFP, % of control: higher = more GFP per well, higher productivity; viability (ATP), % of control: higher = more viable cells (more ATP)
Call rule: 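Called active when intracellular GFP, relative to negative control, is at or above 120%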
The deposit covers about 50,000 reagents; shown is a random part of them. About 4,000 of all reagents (8%) count as active. 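Mouse siRNA library applied to hamster cells; one well for each siRNA.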 Entries without a mark were called inactive. The numbers tell different reagents against one gene apart. Reagent sequences are not shown.

| Gene | reagent | GFP, % of control | viability (ATP), % of control |
| --- | --- | --- | --- |
| Hpdl (GeneID 242642) | 1 | 97.9 | 94.5 |
| Hpdl (GeneID 242642) | 2 | 70.3 | 50.9 |
| Hpdl (GeneID 242642) | 3 | 59.5 | 72.9 |
| Cyp4v3 (GeneID 102294) | 1 | 101 | 87.6 |
| Cyp4v3 (GeneID 102294) | 2 | 95.5 | 95.8 |
| Cyp4v3 (GeneID 102294) | 3 | 58 | 73.5 |
| Stx16 (GeneID 228960) | 1 | 121 (active) | 123 |
| Stx16 (GeneID 228960) | 2 | 79.2 | 86.1 |
| Shisa2 (GeneID 219134) | 1 | 53.4 | 44.3 |
| Shisa2 (GeneID 219134) | 2 | 62 | 56.5 |
| Shisa2 (GeneID 219134) | 3 | 121 (active) | 130 |
| Pank1 (GeneID 75735) | 1 | 86.8 | 67.1 |
| Pank1 (GeneID 75735) | 2 | 80.6 | 75.8 |
| Pank1 (GeneID 75735) | 3 | 83 | 89.8 |
| Psmc4 (GeneID 23996) | 1 | 121 (active) | 85.6 |
| Psmc4 (GeneID 23996) | 2 | 2.17 | 2.24 |
| Psmc4 (GeneID 23996) | 3 | 13.5 | 9.26 |
| Mindy3 (GeneID 66960) | 1 | 96.3 | 89.9 |
| Mindy3 (GeneID 66960) | 2 | 50.3 | 54.3 |
| Mindy3 (GeneID 66960) | 3 | 75.4 | 80.2 |
| Pdcd10 (GeneID 56426) | 1 | 78.6 | 101 |
| Pdcd10 (GeneID 56426) | 2 | 54.8 | 69.5 |
| Pdcd10 (GeneID 56426) | 3 | 125 (active) | 70.6 |
| Pars2 (GeneID 230577) | 1 | 94.5 | 73.2 |
| Pars2 (GeneID 230577) | 2 | 118 | 115 |
| Pars2 (GeneID 230577) | 3 | 72.6 | 105 |
| Pcdh15 (GeneID 11994) | 1 | 68.2 | 90.5 |
| Pcdh15 (GeneID 11994) | 2 | 54.2 | 68.2 |
| Dck (GeneID 13178) | 1 | 113 | 99.8 |
| Col25a1 (GeneID 77018) | 1 | 84.2 | 63.2 |
| Col25a1 (GeneID 77018) | 2 | 74.4 | 78.9 |
| Col25a1 (GeneID 77018) | 3 | 128 (active) | 46.5 |
| Slc66a1 (GeneID 212555) | 1 | 76.4 | 36.6 |
| Slc66a1 (GeneID 212555) | 2 | 35.1 | 31.1 |
| Slc66a1 (GeneID 212555) | 3 | 90.8 | 125 |
| Eno3 (GeneID 13808) | 1 | 255 (active) | 107 |
| Eno3 (GeneID 13808) | 2 | 72.1 | 85.4 |
| Eno3 (GeneID 13808) | 3 | 76 | 57.7 |
| Trim59 (GeneID 66949) | 1 | 92.1 | 74.4 |
| Trim59 (GeneID 66949) | 2 | 60.5 | 57.5 |
| Trim59 (GeneID 66949) | 3 | 66.7 | 65.2 |

12 of these entries, set out differently.
Gene	reagent	GFP, % of control	viability (ATP), % of control
Hpdl (GeneID 242642)	2	70.3	50.9
Hpdl (GeneID 242642)	3	59.5	72.9
Cyp4v3 (GeneID 102294)	1	101	87.6
Cyp4v3 (GeneID 102294)	2	95.5	95.8
Cyp4v3 (GeneID 102294)	3	58	73.5
Stx16 (GeneID 228960)	1	121 (active)	123
Stx16 (GeneID 228960)	2	79.2	86.1
Shisa2 (GeneID 219134)	1	53.4	44.3
Shisa2 (GeneID 219134)	2	62	56.5
Shisa2 (GeneID 219134)	3	121 (active)	130
Pank1 (GeneID 75735)	1	86.8	67.1
Pank1 (GeneID 75735)	2	80.6	75.8

Additional records follow.
| Gene | reagent | GFP, % of control | viability (ATP), % of control |
| --- | --- | --- | --- |
| Gpr150 (GeneID 238725) | 1 | 39.6 | 59.1 |
| Gpr150 (GeneID 238725) | 2 | 74.1 | 80.3 |
| Gpr150 (GeneID 238725) | 3 | 84.5 | 81 |
| Hira (GeneID 15260) | 1 | 48.8 | 70.3 |
| Hira (GeneID 15260) | 2 | 39.6 | 72.2 |
| Hira (GeneID 15260) | 3 | 85.1 | 51.5 |
| Syt5 (GeneID 53420) | 1 | 108 | 86.8 |
| Syt5 (GeneID 53420) | 2 | 95.7 | 104 |
| Pcdhgb8 (GeneID 93705) | 1 | 63 | 58.6 |
| Pcdhgb8 (GeneID 93705) | 2 | 35.7 | 48.5 |
| Pcdhgb8 (GeneID 93705) | 3 | 59.6 | 64.5 |
| Fam221b (GeneID 242408) | 1 | 49.4 | 40.7 |
| Fam221b (GeneID 242408) | 2 | 32 | 33.6 |
| Fam221b (GeneID 242408) | 3 | 94.9 | 110 |
| Fbxw10 (GeneID 213980) | 1 | 42.1 | 52.2 |
| Fbxw10 (GeneID 213980) | 2 | 73.8 | 41.8 |
| Fbxw10 (GeneID 213980) | 3 | 58.5 | 55.7 |
| Commd4 (GeneID 66199) | 1 | 57 | 90.9 |
| Commd4 (GeneID 66199) | 2 | 148 (active) | 89.2 |
| Commd4 (GeneID 66199) | 3 | 106 | 84.9 |
| Pcnt (GeneID 18541) | 1 | 53.6 | 34.4 |
| Pcnt (GeneID 18541) | 2 | 59.5 | 63.1 |
| Pcnt (GeneID 18541) | 3 | 127 (active) | 113 |
| Or14j2 (GeneID 258286) | 1 | 42.4 | 31.5 |
| Or14j2 (GeneID 258286) | 2 | 46.2 | 53.3 |
| Or14j2 (GeneID 258286) | 3 | 61.5 | 83.7 |
| Lmln (GeneID 239833) | 1 | 79.3 | 93.3 |
| Lmln (GeneID 239833) | 2 | 51.4 | 38.1 |
| Mal (GeneID 17153) | 1 | 55.6 | 70.1 |
| Mal (GeneID 17153) | 2 | 82.6 | 59.8 |
| Mal (GeneID 17153) | 3 | 30.7 | 72.8 |
| Col17a1 (GeneID 12821) | 1 | 109 | 117 |
| Col17a1 (GeneID 12821) | 2 | 67.4 | 74.2 |
| Or4k44 (GeneID 258887) | 1 | 99 | 125 |
| Or4k44 (GeneID 258887) | 2 | 65.4 | 75.2 |
| Or4k44 (GeneID 258887) | 3 | 63.7 | 96.8 |
| Tmeff1 (GeneID 230157) | 1 | 56.8 | 44 |
| Tmeff1 (GeneID 230157) | 2 | 69.1 | 48.9 |
| Tmeff1 (GeneID 230157) | 3 | 81.9 | 69.8 |
| Klf3 (GeneID 16599) | 1 | 97.3 | 135 |
| Klf3 (GeneID 16599) | 2 | 75.1 | 72.8 |
| Klf3 (GeneID 16599) | 3 | 83.2 | 70.7 |
| Fstl3 (GeneID 83554) | 1 | 74.5 | 69 |
| Fstl3 (GeneID 83554) | 2 | 164 (active) | 123 |
| Fstl3 (GeneID 83554) | 3 | 60.3 | 37.7 |
